PubChem BioAssay AID504804 – Drosophila RNAi Screening Center | 2011

Purpose: 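dsRNAs that improve Kc cell survival under doxorubicin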 (primary screen)
Cell system: Drosophila Kc cells
Reagent: long dsRNA against Drosophila genes, 0.5 µg dsRNA per well
Time to read-out: 96 h (48 h knock-down, then 48 h drug)
Challenge: doxorubicin 5 µg/ml for 48 h, added 48 h after dsRNA
Measured: 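Viability measured as cellular ATP by luminescence after 48 h knock-down then 48 h doxorubicin at 5 µg/ml; unnormalised plate counts for each replicate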
Direction: raw ATP luminescence: higher = more viable cells, protection from doxorubicin
Active means: 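z-score of 2 or more over plate mean in both duplicates, retained only when retests and separate dsRNAs confirm the protection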
The deposit covers about 19,000 reagents; below is a random part of those with a known target gene and a result. In the full data, 47 (0.25%) got an active call. 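Signals are raw, not normalised; exact z-scores behind calls not deposited; actives needed confirmation, so some wells reaching 2 SD are inactive.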 Unmarked entries are inactive. A plus sign joins genes that one reagent is predicted to hit. Reagent sequences are not shown.

For Tcs6 + PIG-P [DRSC13742], the entry reads raw ATP luminescence, replicate 1 = 1.71e5; raw ATP luminescence, replicate 2 = 2.02e5.
Depletion of Tcs6 + PIG-P [DRSC14893] came out at: raw ATP luminescence, replicate 1 = 83010; raw ATP luminescence, replicate 2 = 80230.
With knock-down of Polr1E (GeneID 42201) [DRSC14506], the screen gave raw ATP luminescence, replicate 1 = 64510; raw ATP luminescence, replicate 2 = 73050.
Knock-down of Polr1E (GeneID 42201) [DRSC15358] came out at: raw ATP luminescence, replicate 1 = 47537; raw ATP luminescence, replicate 2 = 40737.
Depletion of CG2811 (GeneID 37988) [DRSC04318] came out at: raw ATP luminescence, replicate 1 = 55793; raw ATP luminescence, replicate 2 = 58187.
After knock-down of Obp22a (GeneID 246672) [DRSC00088], the screen gave raw ATP luminescence, replicate 1 = 2.97e5; raw ATP luminescence, replicate 2 = 3.03e5.
Against CG16903 (GeneID 31178) [DRSC18561], the entry reads raw ATP luminescence, replicate 1 = 58190; raw ATP luminescence, replicate 2 = 60470.
elB (GeneID 34844) [DRSC01379] gave raw ATP luminescence, replicate 1 = 3.22e5; raw ATP luminescence, replicate 2 = 3.00e5.
For elB (GeneID 34844) [DRSC03527], the values are raw ATP luminescence, replicate 1 = 47090; raw ATP luminescence, replicate 2 = 66507.
Nepl7 (GeneID 34671) [DRSC02495] scored raw ATP luminescence, replicate 1 = 87467; raw ATP luminescence, replicate 2 = 75083.
For CG14118 (GeneID 39465) [DRSC10122], the entry reads raw ATP luminescence, replicate 1 = 91203; raw ATP luminescence, replicate 2 = 80077.
For SmydA-9 (GeneID 31859) [DRSC17814], the entry reads raw ATP luminescence, replicate 1 = 3.03e5; raw ATP luminescence, replicate 2 = 3.39e5.
Depletion of Acbp1 (GeneID 34111) [DRSC03093] gave: raw ATP luminescence, replicate 1 = 51467; raw ATP luminescence, replicate 2 = 76723.
After knock-down of CG42527 (retired record) + Hr4 [DRSC18495], the record shows raw ATP luminescence, replicate 1 = 60130; raw ATP luminescence, replicate 2 = 48450.
cv-d (GeneID 41921) [DRSC16522] gave raw ATP luminescence, replicate 1 = 53483; raw ATP luminescence, replicate 2 = 46143.
With knock-down of cv-d (GeneID 41921) [DRSC16524], the record shows raw ATP luminescence, replicate 1 = 82140; raw ATP luminescence, replicate 2 = 79240.
cv-d (GeneID 41921) [DRSC16526] gave raw ATP luminescence, replicate 1 = 96440; raw ATP luminescence, replicate 2 = 96750.
CG2121 (GeneID 35814) [DRSC06819] gave raw ATP luminescence, replicate 1 = 76463; raw ATP luminescence, replicate 2 = 61770.
With knock-down of CG2121 (GeneID 35814) [DRSC06820], the screen gave raw ATP luminescence, replicate 1 = 49637; raw ATP luminescence, replicate 2 = 78447.
Against cos (GeneID 35653) [DRSC07598], the entry reads raw ATP luminescence, replicate 1 = 56897; raw ATP luminescence, replicate 2 = 61517.

Targets above whose gene name starts with T or t (2):
Tcs6 + PIG-P [DRSC13742] — raw ATP luminescence, replicate 1 = 1.71e5; raw ATP luminescence, replicate 2 = 2.02e5
Tcs6 + PIG-P [DRSC14893] — raw ATP luminescence, replicate 1 = 83010; raw ATP luminescence, replicate 2 = 80230

More results follow:
Against CG32633 (GeneID 326225) [DRSC18987], the values are raw ATP luminescence, replicate 1 = 2.52e5; raw ATP luminescence, replicate 2 = 2.37e5.
Knock-down of CG5024 (GeneID 43117) [DRSC15698] came out at: raw ATP luminescence, replicate 1 = 72490; raw ATP luminescence, replicate 2 = 69660.
Knock-down of mms4 (GeneID 36136) [DRSC06249] came out at: raw ATP luminescence, replicate 1 = 30963; raw ATP luminescence, replicate 2 = 82893.
Knock-down of CG5742 (GeneID 37072) [DRSC06949] resulted in: raw ATP luminescence, replicate 1 = 66790; raw ATP luminescence, replicate 2 = 57787.
Depletion of CG32726 (GeneID 318175) [DRSC17521] came out at: raw ATP luminescence, replicate 1 = 1.86e5; raw ATP luminescence, replicate 2 = 1.82e5.
With knock-down of NimC2 (GeneID 34818) [DRSC01881] the results were raw ATP luminescence, replicate 1 = 74277; raw ATP luminescence, replicate 2 = 70510.
For p53 (GeneID 2768677) [DRSC17024] the deposit lists raw ATP luminescence, replicate 1 = 35997; raw ATP luminescence, replicate 2 = 29750.
For ND-ASHI (GeneID 31604) [DRSC18291], the values are raw ATP luminescence, replicate 1 = 31160; raw ATP luminescence, replicate 2 = 49780.
Silencing of ocn (GeneID 43567) [DRSC17020] resulted in: raw ATP luminescence, replicate 1 = 49330; raw ATP luminescence, replicate 2 = 46490.
For CG11977 (GeneID 41076) [DRSC14454] the deposit lists raw ATP luminescence, replicate 1 = 63013; raw ATP luminescence, replicate 2 = 63230.
COX1 (retired record) (GeneID 192469) [DRSC21275] gave raw ATP luminescence, replicate 1 = 3.39e5; raw ATP luminescence, replicate 2 = 3.25e5.
DCTN2-p50 (GeneID 44086) [DRSC07132] showed raw ATP luminescence, replicate 1 = 54423; raw ATP luminescence, replicate 2 = 58860.
After knock-down of CG9759 (GeneID 41661) [DRSC16558] the results were raw ATP luminescence, replicate 1 = 48457; raw ATP luminescence, replicate 2 = 27170.
Knock-down of Uxt (GeneID 34893) [DRSC01962] resulted in: raw ATP luminescence, replicate 1 = 71597; raw ATP luminescence, replicate 2 = 61563.
betaNACtes2 (GeneID 32386) [DRSC19792] gave raw ATP luminescence, replicate 1 = 3.27e5; raw ATP luminescence, replicate 2 = 3.22e5.
With knock-down of CG10973 (GeneID 39447) [DRSC09813] the results were raw ATP luminescence, replicate 1 = 26650; raw ATP luminescence, replicate 2 = 34790.
